Data published in article PMC9252704.
These are yes or no findings as the source states them, for the method shown. In cells and extracts the contact can be indirect. Some entries that bind do so weakly or less than the wild type.

Biological target: dynamin-related protein 1 (mouse (endogenous in BV2)) (UniProt Q8K1M6)
Assay: co-IP; 0.5 mg BV2 microglia total cell lysate incubated with anti-CDK5 or anti-DRP1 antibody at 4°C overnight, Protein G-Sepharose 2 h, four washes with ice-cold PBS, Western blot; both directions (IP: DRP1, WB: CDK5; IP: CDK5, WB: DRP1); IgG control

Cyclin-dependent kinase-5 (from UniProt P49615 1-292)
binding: binds
